Measured values taken from article PMC5057372.
No constants are given. Whether binding was seen depends on the method and setting. Binding seen in cells or lysates may run through a third protein. Some entries that bind do so weakly or less than the wild type.

The chains behind the UniProt entries cited, without tags or fusion partners.
UniProt P42227: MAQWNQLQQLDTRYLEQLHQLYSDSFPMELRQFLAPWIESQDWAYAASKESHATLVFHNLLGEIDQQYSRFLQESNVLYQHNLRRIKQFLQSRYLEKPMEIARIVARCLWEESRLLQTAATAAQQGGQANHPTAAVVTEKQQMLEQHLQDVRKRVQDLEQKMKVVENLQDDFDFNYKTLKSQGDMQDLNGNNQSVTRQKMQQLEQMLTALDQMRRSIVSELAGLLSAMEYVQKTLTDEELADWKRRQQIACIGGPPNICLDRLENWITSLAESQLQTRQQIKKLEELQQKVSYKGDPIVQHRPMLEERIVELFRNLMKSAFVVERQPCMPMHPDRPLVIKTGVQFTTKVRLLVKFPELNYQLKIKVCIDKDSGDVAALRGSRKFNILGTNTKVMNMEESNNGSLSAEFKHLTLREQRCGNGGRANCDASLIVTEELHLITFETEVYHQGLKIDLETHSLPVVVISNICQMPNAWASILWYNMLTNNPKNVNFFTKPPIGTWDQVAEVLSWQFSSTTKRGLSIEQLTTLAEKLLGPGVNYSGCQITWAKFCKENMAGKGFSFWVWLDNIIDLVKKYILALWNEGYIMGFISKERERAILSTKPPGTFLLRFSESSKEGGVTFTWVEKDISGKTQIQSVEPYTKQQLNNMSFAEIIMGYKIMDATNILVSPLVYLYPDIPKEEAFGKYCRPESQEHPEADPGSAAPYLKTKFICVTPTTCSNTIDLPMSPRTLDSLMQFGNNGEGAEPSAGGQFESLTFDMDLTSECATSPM

Biological target: Signal transducer and activator of transcription 3 (STAT3) (mouse (endogenous in primary astrocytes of C57BL/6 mice)) (UniProt P42227)
Assay: co-IP; nuclear protein extracts of primary astrocytes after OGD (vehicle, Sino 1 mM, Sino with scramble, DRD2 or CRYAB siRNA) precipitated with a STAT3 antibody on Protein A/G PLUS-Agarose; Western blot with STAT3, p-STAT3 and CRYAB antibodies

binding: binds
B1: αB-crystallin (CRYAB) (protein, UniProt P23927 1-175)
chain: MDIAIHHPWIRRPFFPFHSPSRLFDQFFGEHLLESDLFSTATSLSPFYLRPPSFLRAPSWIDTGLSEMRLEKDRFSVNLDVKHFSPEELKVKVLGDVIEVHGKHEERQDEHGFISREFHRKYRIPADVDPLTITSSLSSDGVLTVNGPRKQVSGPERTIPITREEKPAVAAAPKK
